Reference: patent US10365286B2, “Chromophoric structures for lanthanide chelates” (RADIOMETER TURKU OY, priority 2014, dated 2019)

Tested on: cTnI
Assay: Model cTnI immunoassay with chelate-labelled detection antibodies
Settings: for Counts for 0 ng/ml (cTnI standard) / Counts for 5 ng/ml cTnI standard / Eu/IgG (labeling ratio, chelates per protein) / Signal/Eu: antibody labelled with the chelate; for Signal improvement/Eu: versus reference chelate
Procedure: Labeling was performed in 10 mM botate buffer, pH 8.6-9.0 using 30-fold molar excess of chelates. Reactions were normally carried out overnight at +4° C. or at room temperature. Labeled antibodies were purified on Superfex 200 HR 10/30 or Superdex 200 HiLoad 26/60 gel filtration columns using Tris-saline-azide […], 9.0 g/L NaCl, and 0.5 g/L NaN3), pH 7.75 as an elution buffer. The fractions containing the antibody were pooled and the europium concentrations measured against europium calibrator. The purified antibody comjugate and the labeling ratio (i.e. chelates per protein) were quantified by calculating the protein yield or by measureing the absorbance at 280 nm and subtracting the absorption caused by the added chelate.
An earlier published nine dentate label {2,2′,2″,2′″-{[2-(4-isothiocyanato-phenyl)ethylimino]bis(methylene)bis{4-{[4-(α-galactopyranoxy)phenyl]ethynyl}-pyridine-bis(methylenenitrilo)}tetrakis(acetato)}europium(III) (von Loden, P., et al., 2003, Anal. Chem. 75, 3193) was used as a reference label.
Two labels 49 and 54 were tested in a model cTnl assay. The cTnl immunoassays were performed by using biotinylated capture cTnl antibodies together with the labelled cTnl detection antibodies described above and according to the main principles described in published method (von Loden, P., et al., 2003, Anal. Chem. 75, 3193). The combined assay/wash buffer contained 5 mmol HEPES, 2.1 g/L NaCl, 0.1 mmol EDTA, 0.055 g/L Tween 20 and 1 g/L Gernall II, pH 7.75. The capture biotinylated antibodies were pre-incubated in assay wells. The standards followed by the detection label antibody diluted in 20 μl and 10 μl assay buffer, respectively, were applied to the wells. After one hour incubation at 36 C, the wells were washed, dried and measured.

SMILES	Counts for 0 ng/ml (cTnI standard) (First test)	Counts for 5 ng/ml cTnI standard (First test)	Eu/IgG (labeling ratio, chelates per protein) (First test)	Signal/Eu (First test)	Signal improvement/Eu (First test)	Counts for 0 ng/ml (cTnI standard) (Second test)	Counts for 5 ng/ml cTnI standard (Second test)	Eu/IgG (labeling ratio, chelates per protein) (Second test)	Signal/Eu (Second test)	Signal improvement/Eu (Second test)
O=C([O-])CN(CC(=O)[O-])Cc1cc(C#Cc2ccc3c(c2)C(CC(=O)[O-])(CC(=O)[O-])c2ccccc2-3)cc(CN(CCc2ccc(N=C=S)cc2)Cc2cc(C#Cc3ccc4c(c3)C(CC(=O)[O-])(CC(=O)[O-])c3ccccc3-4)cc(CN(CC(=O)[O-])CC(=O)[O-])n2)n1.[Eu+3].[Na+].[Na+].[Na+].[Na+].[Na+] [Compound 49]	1095	110698	8.9	12254	2.2					
O=C([O-])CN(CC(=O)[O-])Cc1cc(-c2ccc3c(c2)C(CC(=O)[O-])(CC(=O)[O-])c2ccccc2-3)cc(CN(CCc2ccc(N=C=S)cc2)Cc2cc(-c3ccc4c(c3)C(CC(=O)[O-])(CC(=O)[O-])c3ccccc3-4)cc(CN(CC(=O)[O-])CC(=O)[O-])n2)n1.[Eu+3].[Na+].[Na+].[Na+].[Na+].[Na+] [Compound 54]						421	59602	6.3	9394	1.2
